PubChem BioAssay AID504467 (National Center for Advancing Translational Sciences (NCATS), 2011)
Hit rate of the full screen: of about 330,000 compounds, about 7,700 (2.3%) were called active. The inconclusive results got no clear call from the source; some entries with a clear call stand among them for comparison. The call rests on the fitted dose curve; in most records, active means well fitted inhibition curve with a large enough effect; inconclusive means small, poorly fitted or top-dose-only effect, or effect the other way; inactive means flat fitted curve, though single readings scatter. Where the call is inconclusive, the potency comes from a doubtful curve fit.

test: qHTS screen for small molecules that inhibit ELG1-dependent DNA repair in human embryonic kidney (HEK293T) cells expressing luciferase-tagged ELG1; details: HEK293T ELG1-luciferase reporter, luminescence, 16 h, DNA damage induced by 5-fluorouridine; activity change, negative = inhibition: at 46.1 µM (top of the series); further: nearly all actives have a fitted effect of over 55% in size
Summary of the method: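 Step one: seed 2,000 cells per well. Step two: pin-transfer compound or DMSO alongside 5-fluorouridine. Step three: incubate 16 hr, 37 °C, 5% CO2. Step four: add ONE-Glo, wait 30 min, read luminescence.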
On the % scale 0 is the no-effect control and ±100 the full control effect; potency means the concentration at half of the fitted maximal effect.

Q: For `C(=N\N1CCN(Cc2ccccc2)CC1)/c1cccs1`, which Potency is on record?
A: Its Potency is inconclusive: 16.4 µM [activator, partial curve].

Q: For `CN1CCC(=NNC(=O)CSCc2ccccc2)CC1`, which “activity change, negative = inhibition” value is on record?
A: The value was inactive: -5.78%.

Q: With `N/C(=N\OC(=O)c1cccnc1)c1ccc(Cl)cc1Cl` as the compound, how does the Potency read?
A: Its Potency is inconclusive: 13 µM [activator, partial curve].

Q: With `CC(Oc1cc2oc(=O)c3c(c2cc1Cl)CCCC3)C(=O)NCc1ccncc1` (configuration not stated) as the compound, how does the “activity change, negative = inhibition” value read?
A: Its value is inactive: -16.7%.

Q: Which “activity change, negative = inhibition” value does the source give for `CC(C)n1cnc2c(NCc3ccc(S(N)(=O)=O)cc3)nc(NCc3ccc(S(N)(=O)=O)cc3)nc21` here?
A: The value was inactive: 0.867%.

Q: For `COc1ccc2cc(C(N)=O)c(=Nc3ccccc3)oc2c1`, which Potency is on record?
A: The Potency was inconclusive: 6.51 µM [activator, partial curve].

Q: For `O=C(Nc1ccccc1)C(=O)c1c[nH]c2ccccc12`, which Potency is on record?
A: Its Potency is inconclusive: 0.461 µM [activator, full curve].

Q: With `Cc1ccc(-n2c(SCC(=O)N3CCCCC3)nc(O)cc2=O)cc1` as the compound, how does the “activity change, negative = inhibition” value read?
A: The value was inactive: -0.503%.

Q: With `CCC(C)NS(=O)(=O)c1ccc(NS(=O)(=O)c2ccccc2[N+](=O)[O-])cc1` (configuration not stated) as the compound, how does the “activity change, negative = inhibition” value read?
A: Its value is inactive: -1.62%.

Q: With `COc1ccc(S(=O)(=O)N(C)C[C@H]2Oc3ccc(NC(=O)C4CC4)cc3C(=O)N([C@H](C)CO)C[C@@H]2C)cc1` as the compound, how does the Potency read?
A: The Potency was inconclusive: 25.9 µM [inhibitor, single point].

Q: Which Potency does the source give for `C/C(NCCCn1ccnc1)=C(\C#N)C(N)=O` here?
A: The Potency was inconclusive: 20.6 µM [activator, single point].

Q: Which “activity change, negative = inhibition” value does the source give for `O=C(NC(=S)Nc1ccccc1N1CCCCC1)c1ccc(F)cc1Cl` here?
A: Its value is inactive: 0%.

Q: Which Potency does the source give for `CCn1c(/C=N/NC(=O)c2ccc(OC)cc2)nc2ccccc21` here?
A: The Potency was inconclusive: 18.4 µM [inhibitor, single point].

Q: For `CCOc1ccc2nc(NC(=O)c3ccco3)sc2c1`, which Potency is on record?
A: Its Potency is inconclusive: 1.3 µM [activator, partial curve].

Q: With `Cc1ccc(N2C(=O)c3ccccc3NC2c2ccccc2O)cc1` (configuration not stated) as the compound, how does the Potency read?
A: The Potency was inconclusive: 6.51 µM [activator, partial curve].

Q: For `COc1ccc(/C=C2\SC(=O)NC2=S)cc1OC`, which Potency is on record?
A: The Potency was inconclusive: 23.1 µM [activator, partial curve].

Q: For `Cc1cccc(-n2c(C)cc(/C=N\NC(=O)c3cccs3)c2C)c1`, which Potency is on record?
A: Its Potency is inconclusive: 0.461 µM [activator, full curve].

Q: For `O=C(Nc1ccccc1)c1sccc1Oc1ccc([N+](=O)[O-])cc1F`, which Potency is on record?
A: Its Potency is inconclusive: 20.6 µM [inhibitor, single point].

Q: With `Cc1cc(-c2cccc([N+](=O)[O-])c2)nc2ccc3ccccc3c12` as the compound, how does the “activity change, negative = inhibition” value read?
A: The value was inactive: 16%.

Q: With `CCC(C)c1ccc(Nc2ncccc2C#N)cc1` (configuration not stated) as the compound, how does the Potency read?
A: Its Potency is inconclusive: 20.6 µM [activator, partial curve].

Q: With `COC(=O)/C=C/C(=O)Nc1cccnc1` as the compound, how does the “activity change, negative = inhibition” value read?
A: Its value is inactive: 14.3%.

Q: For `S=C(Nc1ccccc1)Nc1nc2ccccc2n1CCOc1ccccc1`, which “activity change, negative = inhibition” value is on record?
A: Its value is inactive: 0%.

Q: For `Cc1ccc(-n2ncc3c(=O)n(CC(=O)OCc4ccccc4)cnc32)cc1`, which Potency is on record?
A: The Potency was inconclusive: 16.4 µM [activator, single point].

Q: Which Potency does the source give for `COc1ccccc1NC(=O)C1CCCN(S(=O)(=O)c2ccc(-n3cnnn3)cc2)C1` (configuration not stated) here?
A: Its Potency is inconclusive: 20.6 µM [inhibitor, single point].

Q: For `N#CCCCN1C(=O)C(O)(CC(=O)c2ccc3c(c2)OCCO3)c2ccccc21` (configuration not stated), which “activity change, negative = inhibition” value is on record?
A: The value was inactive: 12.2%.

Q: With `CCC(C)Sc1nc2c(c(=O)[nH]c(=O)n2C)n1Cc1ccc(Cl)cc1` (configuration not stated) as the compound, how does the “activity change, negative = inhibition” value read?
A: Its value is inactive: -19.8%.

Q: For `Cc1cccc(C)c1OCC(=O)N1CCc2ccccc2C1`, which Potency is on record?
A: Its Potency is inconclusive: 35.5 µM [activator, single point].

Q: Which Potency does the source give for `CCCC(=O)N1CCN(c2nc(CC(C)C)c3c(c2C#N)CCC3)CC1` here?
A: Its Potency is inconclusive: 29.1 µM [inhibitor, single point].

Q: With `O=C(Nc1nc2c(F)cc(F)cc2s1)C1CC1` as the compound, how does the Potency read?
A: Its Potency is inconclusive: 20.6 µM [activator, partial curve].

Q: For `CCc1nnc(NC(=O)C2CCCO2)s1` (configuration not stated), which Potency is on record?
A: The Potency was inconclusive: 18.3 µM [activator, single point].

Q: For `CCOc1cc(C(=O)NC(=S)Nn2cnnc2)cc(OCC)c1OCC`, which “activity change, negative = inhibition” value is on record?
A: Its value is inactive: -0.291%.

Q: With `CCOc1ccc2nc(NC3=NC(C)(C)C=C(C)N3)nc(C)c2c1` as the compound, how does the Potency read?
A: Its Potency is inconclusive: 18.4 µM [inhibitor, partial curve, poor fit].

Q: Which Potency does the source give for `CC(C)(C)OC(=O)C[C@@H]1C/C=C\C[C@H](CC(=O)N(CCO)Cc2ccccc2)C(=O)N[C@H](C(C)(C)C)COC1=O` here?
A: Its Potency is inconclusive: 32.6 µM [inhibitor, single point].

Q: Which “activity change, negative = inhibition” value does the source give for `c1ccc(CC[C@@H]2CC[C@@H](CCc3ccccc3)N2)cc1` here?
A: Its value is inactive: 13.2%.

Q: With `CCOC(=O)c1c(-c2ccc(OC)cc2)csc1NC(=O)CSc1ccccc1` as the compound, how does the “activity change, negative = inhibition” value read?
A: Its value is inactive: -13.1%.

Q: For `N/C(Cc1cccc2ccccc12)=N\OC(=O)c1ccccc1F`, which “activity change, negative = inhibition” value is on record?
A: Its value is inactive: 1.49%.

Q: With `CC(=O)c1ccc(OCc2cc(C(=O)NCCn3nc(C)cc3C)no2)cc1` as the compound, how does the Potency read?
A: The Potency was inconclusive: 16.4 µM [activator, partial curve].

Q: Which Potency does the source give for `CCOCC(=O)Nc1nc2ccc(C)cc2s1` here?
A: Its Potency is inconclusive: 4.11 µM [activator, full curve].

Q: With `O=C(Cn1c(=O)c2c(ncn2Cc2ccccc2)n(Cc2ccccc2)c1=O)N1CCc2ccccc21` as the compound, how does the Potency read?
A: Its Potency is inconclusive: 3.26 µM [inhibitor, single point].

Q: With `CCOC(=O)c1c(C)nc2sc3c(c2c1-c1ccc(OC)cc1)NC(c1ccccc1)NC3=O` (configuration not stated) as the compound, how does the Potency read?
A: Its Potency is active: 16.4 µM.

Q: For `COc1ccc(-c2c(C)nc(N)nc2-c2ccc(OC)cc2O)cc1`, which “activity change, negative = inhibition” value is on record?
A: Its value is inactive: 10.1%.

Q: Which Potency does the source give for `Cc1nn(Cc2ccccc2)c(C)c1/C=N/NC(=O)CNc1cccc(C(F)(F)F)c1` here?
A: The Potency was inconclusive: 23.1 µM [inhibitor, partial curve].

Q: With `O=C(Nc1ccc2c(c1)OCCO2)c1c(F)cccc1F` as the compound, how does the Potency read?
A: The Potency was inconclusive: 3.66 µM [activator, full curve].

Q: With `N#C/C(N)=C(/C#N)N=Cc1cccc(Cl)c1` as the compound, how does the Potency read?
A: Its Potency is inconclusive: 32.6 µM [inhibitor, partial curve, poor fit].

Q: For `Cc1cccc(N(Cc2ccccc2)C(=O)Cc2ccc(S(=O)(=O)N3CCOCC3)s2)c1`, which Potency is on record?
A: Its Potency is inconclusive: 29.1 µM [inhibitor, single point].

Q: For `COc1ccc(C2c3ccc4ccccc4c3Oc3ncn(CCO)c(=N)c32)cc1OC` (configuration not stated), which “activity change, negative = inhibition” value is on record?
A: Its value is inactive: 0.706%.

Q: With `CCOC(=O)n1c(O)c(N=NC(N)=S)c2cc(C)ccc21` as the compound, how does the Potency read?
A: Its Potency is inconclusive: 6.51 µM [activator, single point].
